Source: paper PMC6884549, “Alkyladenine DNA glycosylase associates with transcription elongation to coordinate DNA repair with gene expression” (Nature Communications, 2019)

Sequences of proteins named here, by UniProt entry; tags and fusion partners are left off. A change or cut given only in a name is not applied to a line headed by its entry.
UniProt P29372: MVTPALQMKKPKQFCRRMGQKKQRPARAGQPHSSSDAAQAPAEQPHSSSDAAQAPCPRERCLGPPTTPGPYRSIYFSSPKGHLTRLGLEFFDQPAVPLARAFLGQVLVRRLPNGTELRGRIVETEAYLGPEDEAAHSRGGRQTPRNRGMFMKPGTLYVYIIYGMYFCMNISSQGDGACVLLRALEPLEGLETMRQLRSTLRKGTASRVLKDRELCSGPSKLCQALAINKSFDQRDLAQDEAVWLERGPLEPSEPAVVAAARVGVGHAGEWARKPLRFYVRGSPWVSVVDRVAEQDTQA
UniProt P12004: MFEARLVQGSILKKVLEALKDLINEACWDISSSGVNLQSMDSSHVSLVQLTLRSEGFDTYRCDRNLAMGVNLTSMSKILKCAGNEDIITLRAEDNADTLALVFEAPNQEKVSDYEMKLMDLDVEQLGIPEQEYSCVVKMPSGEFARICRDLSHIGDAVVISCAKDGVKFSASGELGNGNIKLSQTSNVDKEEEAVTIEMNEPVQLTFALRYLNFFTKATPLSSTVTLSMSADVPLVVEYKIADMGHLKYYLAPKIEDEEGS

Target: FLAG-tagged AAG (human) (UniProt P29372)
Experiment: affinity purification with mass spectrometry; FLAG-AAG from transfected HEK293T (mock or 2 mM MMS for 1 h); 1 mg extract on FLAG M2 resin in buffer A1 (20 mM HEPES pH 7.9, 140 mM NaCl, 0.01% NP-40) 2 h at 4 °C, eluted with 3xFLAG peptide, LC/MS-MS; empty FLAG vector as control

- binding: binds
Substance: PCNA, endogenous (from UniProt P12004 1-261)

No constants are given. Whether binding was seen depends on the method and setting. In cells and extracts the contact can be indirect. These calls come from enrichment with a bait or labelling near it, and not all partners need be listed.
